These are yes or no findings as the source states them, for the method shown. Binding seen in cells or lysates may run through a third protein. A result given as binding can be weak or reduced; the word gives no strength. Where a sequence is shown, tags or fusion partners need not be part of it.
Tests used:
[1] = target: GST-tagged full-length HMR (GST-HMR) (Arabidopsis thaliana); test: pull-down; GST or GST-HMR baits immobilized on glutathione Sepharose beads; in vitro translated HA-RCB preys, 4 °C for 2 h; washed with E buffer (50 mM Tris-HCl pH 7.5, 100 mM NaCl, 0.1% Nonidet P-40); anti-HA immunoblot; only the target purified
[2] = target: GST-tagged full-length HMR (GST-HMR) (Arabidopsis thaliana); test: pull-down; pulldown of HMR22 (D516N) against wild-type HMR with RCB; details only in Supplementary Fig. 2

binding [1]: binds
binding [2]: binds
B1: HA-tagged full-length RCB (HA-RCB) (protein, UniProt F4JLC1 1-331)
chain: MSFFAVACSAPRSSMLLTGLNSSFSDMHRSPLFVFPVTISSRSVKRFAAVSSDSVLDPESKNQTRSRRKNKEAVTPIAETENNEKFPTKVPRKSKRGRRSEADAVEDYVRSSLERTFSTIKEQNPEVFENKEKANFIKDRGVDEEEEEEEEMVVEEEDPDWPVDTDVGWGIKASEYFDTHPIKNVVGDDGSEIDWEGEIDDSWVKEINCLEWESFAFHPSPLVVLVFERYKRASDNWKTLKELEKAIKVYWDAKDRLPPRAVKIDLNIETDLAYALKAKECPQILFLRGNRILYREKDFRTADELVHMIAHFYYKAKRPSCVDKANVTPYC
